Patent US6767923B2, “Benzhydryl derivatives” (BASF Aktiengesellschaft, priority 2001, dated 2004)
Some of these results come from one statement about several compounds together.

Test system: mildew of wheat (Erysiphe graminis forma specialis tritici)
Assay: Activity against mildew of wheat (protective spray on potted wheat seedlings cv. Kanzler)
Assay type: in vivo
Conditions: wheat seedlings treated with 4 or 16 ppm active compound; inoculated 24 hours after spraying; assessed after 7 days; untreated plants infected to 90%

COc1cc(C)c(C(O)c2c(OC)ccc(Br)c2C)c(OC)c1OC (stereo not drawn) [I-1, 5-bromo-6,6′-dimethyl-2,2′, 3′, 4′-tetramethoxybenz-hydryl alcohol]
infection (mildew development determined visually as % infection of the total leaf area): at most 30%

COc1cc(C)c(C(O)c2c(Cl)ccc(Cl)c2C)c(OC)c1OC (stereo not drawn) [I-2, 2,5-dichloro-6,6′-dimethyl-2′, 3′, 4′-trimethoxy-benzhydryl alcohol]
infection (mildew development determined visually as % infection of the total leaf area): at most 30%

COc1cc(C)c(C(O)c2c(O)ccc(Cl)c2C)c(OC)c1OC (stereo not drawn) [I-3, 5-chloro-2-hydroxy-6,6′-dimethyl-2′, 3′, 4′-trimethoxybenzhydryl alcohol]
infection (mildew development determined visually as % infection of the total leaf area): at most 30%
